Experimental data as given in PubChem BioAssay AID2685 (National Center for Advancing Translational Sciences (NCATS), 2010).
The list shows a part of the results. The main result of the screen is listed elsewhere. These columns were measured beside it and carry no call. Compounds called inactive in the main read-out are mostly missing here. The note in brackets gives the kind of curve behind each potency; many fits are weak.

Experiment: qHTS Assay for Lipid Storage Modulators in Drosophila S3 Cells;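 for cell number change: cells counted by Cell Tracker Red CMTPX staining in the red channel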
Conditions: BODIPY lipid droplet fluorescence, 18-24 h; for cell number change: measured here: cell count max response, cells fed with added oleic acid
In short: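 Drosophila S3 cells got compounds at several concentrations plus oleic acid (400 uM solution). Laser-scanning cytometry with 488 nm excitation read lipid droplets at 500-530 nm and cells at 575-640 nm. Percent activity was relative to 20 uM Triacsin C.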

[1] = measured here: cell number channel AC50, cells fed with added oleic acid
[2] = measured here: lipid fluorescence (Fed channel) AC50, cells fed with added oleic acid

Structure (SMILES)	cell number change	AC50 [1]	AC50 [2]
CCOc1ccc(/C=N/NC(=O)c2c(C)n(C)c3ccc(OC)cc23)cc1	37.2%	9.2 µM [rising, partial curve]	8.2 µM [rising, partial curve]
COc1ccccc1C1C(C(N)=O)=C(C)Nc2nc(-c3ccc(Cl)cc3)nn21 (stereo not drawn)	13.6%		6.51 µM [falling, single point]
O=C(O)c1cccc(N(CCO)CCO)c1	-1.07%		
O=C(COc1ccccc1Cl)Nc1ccccc1C(=O)N1CCCCC1	1.61%	0.146 µM [rising, full curve, poor fit]	25.9 µM [falling, single point]
Cc1ccc(NC(=O)CN2CCc3cc4c(cc3C2C)OCCCO4)cc1 (stereo not drawn)	10.4%		
Clc1ccc(-c2cnc3ccccc3n2)cc1	14.6%	6.51 µM [rising, single point]	29.1 µM [falling, single point]
CC(=O)C1C(=O)c2c(cccc2[N+](=O)[O-])C1=Nc1cccc(Cl)c1 (stereo not drawn)	7.15%		32.6 µM [rising, single point]
CN(C)S(=O)(=O)c1ccc(C(=O)NCCC(=O)N2CCCC2)cc1	10.5%		
O=C(C1=C[C@@H](c2ccc(C(F)(F)F)cc2)C[C@@H](OCc2ccc(CO)cc2)O1)N1CCN(Cc2ccc3c(c2)OCO3)CC1	-10.9%		1.64 µM [falling, partial curve]
O=C(NNC(=O)NC1CCCCC1)NC1CCCCC1	-35.3%	4.11 µM [falling, single point]	2.06 µM [falling, partial curve]
CC[C@]1(c2ccccc2C)ON(c2ccccc2C(F)(F)F)C1=O	-2.72%	0.092 µM [falling, partial curve]	1.16 µM [rising, single point]
COc1ccc(C2(C(=O)NCCCN(C)C)CCOCC2)cc1	-34.9%	4.11 µM [falling, full curve, poor fit]	10.3 µM [falling, partial curve, poor fit]
O=C(Nc1ccc(Oc2c(F)c(F)c(F)c(F)c2F)cc1)OC1CCN2Cc3ccccc3N=C12 (stereo not drawn)	-33.6%	10.3 µM [falling, partial curve]	7.31 µM [falling, partial curve]
COc1cc(C#N)c(NC(=O)CN2CCN(CCO)CC2)cc1OC	-92.2%		
Cc1nn(CCc2nn[nH]n2)c2nc(-c3ccc(Br)cc3)cc(C(F)(F)F)c12		6.51 µM [rising, single point]	1.03 µM [rising, full curve, poor fit]
CCOC(=O)C1CCCN(Cc2cccs2)C1 (stereo not drawn)	-74.9%	29.1 µM [falling, single point]	2.31 µM [falling, full curve]
Cc1ccc(C(=O)N2CCC3(CC2)Oc2ccc(F)cc2C(=O)C32CC(c3ccc(Cl)cc3)=NO2)s1 (stereo not drawn)	14.2%		3.26 µM [rising, single point]
Fc1ccc(NC(=S)N2CCc3ccccc32)cc1			23.1 µM [falling, partial curve, poor fit]
COc1ccc(NC(=O)c2cc3cc(C)ccc3n2C)c(OC)c1	25.2%		
Cc1cc(C(=O)CCC(=O)Nc2ccc(S(N)(=O)=O)cc2)c(C)s1	-16.6%		

Structure (SMILES)	cell number change	AC50 [1]	AC50 [2]
COc1ccc(/C=N/n2cc(-c3ccc(OC)cc3)nc2N)cc1		2.91 µM [rising, partial curve, poor fit]	3.26 µM [rising, partial curve]
COc1nc(C)cc(C)c1S(=O)(=O)c1ccc(Cl)cc1	16.8%		
Cc1cc(C(=O)CSc2nncs2)c(C)n1-c1c(C)n(C)n(-c2ccccc2)c1=O	-0.39%		
Cc1ccc(N(CC(O)CN2C(=O)NC(C)(C)C2=O)S(=O)(=O)c2ccc([N+](=O)[O-])cc2)cc1 (stereo not drawn)	-3.54%		6.51 µM [falling, single point]
CCN(c1ccccc1)S(=O)(=O)c1ccc(C(=O)N(CCN(C)C)c2nc3c(F)cc(F)cc3s2)cc1	-24.8%		0.58 µM [falling, single point]
CCCC(=O)Nc1ccc2nn(-c3ccc(OC)cc3)nc2c1	-0.587%		
Cc1ccc(S(=O)(=O)NNC(=O)c2ccc(NC(=O)C3CC3)cc2)cc1	5.67%	0.326 µM [rising, partial curve, poor fit]	
CCOc1ccc(CCNC(=O)c2cc3c(s2)CS(=O)(=O)C3)cc1OCC	29.7%		
CCCCc1nc2cc(C(=O)N3CCCC3)ccc2o1	-3.4%		29.1 µM [falling, single point]
COc1ccc(OC)c(NC(=O)CSc2nc3scc(C)c3c(=O)[nH]2)c1	6.09%		
COc1cc([N+](=O)[O-])ccc1NC(=S)NNC(=O)CCC(=O)Nc1ccccc1Cl	3.24%		0.146 µM [rising, full curve, poor fit]
CCCc1cc(=O)oc2c(C)c(OCC(=O)N3CCC(C(=O)O)CC3)ccc12	8.43%		
Clc1ccc(C[n+]2csc3ccccc32)cc1	-0.326%		0.058 µM [falling, full curve, poor fit]
COc1cccc(CN2CCNC(=O)C2CC(=O)N2CCCCO2)c1OC (stereo not drawn)	-0.149%		0.731 µM [falling, single point]
Cc1ccccc1C(=O)NNC(=O)C(C)N1C(=O)c2ccccc2C1=O (stereo not drawn)	-114%	0.651 µM [falling, single point]	0.651 µM [falling, single point]
Cc1sc2nc(CSc3nnc(Cc4cccs4)n3C3CCCCC3)[nH]c(=O)c2c1C	-0.785%		
Cn1ncc(C(=O)Nc2ccc(OC(F)(F)F)cc2)c1-n1cccc1	31.5%	1.64 µM [rising, full curve]	5.8 µM [rising, full curve]
O=C(COc1ccccc1)NCC(c1ccco1)N1CCCCC1 (stereo not drawn)		0.146 µM [rising, full curve, poor fit]	
CCCC(=O)c1c[nH]c(C(=O)N2CCOCC2)c1	17.3%		2.06 µM [falling, partial curve, poor fit]

Gathered by group: the compounds so far containing a COOH group (2)
Structure (SMILES)	cell number change	AC50 [1]	AC50 [2]
O=C(O)c1cccc(N(CCO)CCO)c1	-1.07%		
CCCc1cc(=O)oc2c(C)c(OCC(=O)N3CCC(C(=O)O)CC3)ccc12	8.43%		
